Results published in PubChem BioAssay AID2685 (National Center for Advancing Translational Sciences (NCATS), 2010).
The whole screen tested about 320,000 compounds, of which about 2,100 (0.66%) were called active. This list was built around the results that the source calls inconclusive (neither active nor inactive); the mix of calls is not that of the screen. Calls come from the whole dose curve; as a rule, active = well fitted inhibition curve with a large enough effect in the signal ratio, with a control signal flat (not every such curve was filed as active); inconclusive = small, poorly fitted or top-dose-only effect, or effect the other way, or a change in a side signal; inactive = flat fitted curve, though single readings scatter; the % refers to the signal ratio. Where the call is inconclusive, the potency comes from a doubtful curve fit.

Assay: qHTS Assay for Lipid Storage Modulators in Drosophila S3 Cells
Conditions: BODIPY lipid droplet fluorescence, 18-24 h, cells fed with added oleic acid; lipid storage change, negative = inhibition: at 46.1 µM (top of the series) unless noted
Summary of the method: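 Laser-scanning cytometry quantifies lipid droplet accumulation (500–530 nm total intensity; droplet/cell object ratio) in oleic acid-fed (400 uM added) Drosophila S3 cells treated with a concentration series. 20 uM Triacsin C defined 100% inhibition.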
% is set by controls: 0 for no effect and ±100 for the full control effect; potency is the fitted concentration of half-maximal effect.

Row | Compound | lipid storage change, negative = inhibition | Potency
1 | CCOc1ccc(S(=O)(=O)N2CCCC(C(=O)NC3CC3)C2)cc1Cl (centres undefined) | inconclusive: -47.2% [at 0.0737 µM] | 
2 | CCOC(=O)c1cnc(SCc2ccc(C(C)(C)C)cc2)nc1N |  | inconclusive: 8.2 µM [activator, partial curve]
3 | CN(c1ccccc1)S(=O)(=O)c1cccc(NC(=O)C2CC(=O)N(Cc3ccccc3)C2)c1 (centres undefined) | inconclusive: -23.4% | 
4 | COc1ccc(S(=O)(=O)Nc2cccnc2)c(C)c1C |  | inconclusive: 10.3 µM [falling, single point]
5 | CCOC(=O)CNC(=O)N1CCC(CCC(=O)N(C)Cc2ccccc2)CC1 |  | inconclusive: 29.1 µM [activator, single point]
6 | Cc1cc(C(C)(C)C)cc(S(=O)(=O)NCCO)c1C |  | inconclusive: 0.0046 µM [falling, full curve, poor fit]
7 | CCCOc1cc(C)c(S(=O)(=O)N2CCN(C)CC2)cc1C |  | inconclusive: 13 µM [activator, single point]
8 | Cc1nc2cc(NC(=O)NCc3ccccc3)ccc2o1 | inconclusive: -33.1% | 
9 | CCN(CC)CCNC(=O)Cc1c(C(=O)O)n(CC)c2ccccc12 |  | inconclusive: 0.0046 µM [falling, full curve, poor fit]
10 | Cc1cc(=O)oc2cc(OC(C)C(=O)Nc3ccc(N4CCOCC4)cc3)ccc12 (centres undefined) | inactive | 
11 | Cc1cccc(NC(=S)NCc2ccc3c(c2)OCO3)c1 |  | inconclusive: 20.6 µM [activator, single point]
12 | COc1ccccc1NC(=O)CCC(=O)Nc1cc(OC)c(NC(=O)c2cccs2)cc1OC |  | inconclusive: 1.16 µM [activator, single point]
13 | COc1ccc2oc(=O)c(C(=O)Nc3ccccc3O)cc2c1 | inconclusive: 8.74% | 
14 | Cc1nc2ccccc2c2c1C(=O)N(C1CCCCCCC1)C2=O | inconclusive: 16% | 
15 | COc1ccc(N2CCN(CCCNC(=O)c3ccc(CS(=O)(=O)c4ccc(OC)cc4)o3)CC2)cc1 |  | inconclusive: 29.1 µM [activator, single point]
16 | CCNC(=O)C(=O)NCC1OCCCN1S(=O)(=O)c1cccs1 (centres undefined) | inconclusive: -12.9% | 
17 | O=C(C1CCN(S(=O)(=O)c2ccc(-n3cnnn3)cc2)CC1)N1CCCCC1 |  | inconclusive: 1.46 µM [falling, partial curve]
18 | Clc1cccc(/C=N\Nc2nccs2)c1 | inconclusive: 32.1% | 
19 | COc1cc2c(cc1OC)C(C)N(S(=O)(=O)c1cccs1)CC2 (centres undefined) |  | inconclusive: 29.1 µM [falling, single point]
20 | O=C(CS(=O)CC(=O)N(CC(=O)NC1CCCC1)C1CCCCC1)Nc1ccc(F)cc1 (centres undefined) | inconclusive: 22.1% | 
21 | CN=C(Cc1ccccc1)C1=C(O)CC(C)(C)CC1=O | inconclusive: 8.51% | 
22 | Cc1ccc(S(=O)(=O)NN2C(=O)c3ccccc3NC2c2ccccc2F)cc1 (centres undefined) | inconclusive: -15.1% | 
23 | CC(=O)OC(C(=O)NC1CCCCC1)c1cccc(F)c1 (centres undefined) | inconclusive: -0.788% | 
24 | O=C(/C=C/c1cccc(F)c1)NCCCn1ccnc1 | inconclusive: 11.9% | 
25 | CCCNC(=O)C(Cc1ccccc1)NC(=O)c1ccc(C(F)(F)F)cc1 (centres undefined) | inconclusive: 7.72% | 

Row | Compound | lipid storage change, negative = inhibition | Potency
26 | O=C(Nc1ccc(S(=O)(=O)Nc2ccc(F)cc2)cc1)c1ccc(CN2CCOCC2)cc1 | inconclusive: -17.5% [at 9.22 µM] | 
27 | CCOC(=O)C1CCN(C(=O)C(=O)c2cn(CC(=O)N3CCCCCC3)c3ccccc23)CC1 |  | inconclusive: 20.6 µM [falling, partial curve, poor fit]
28 | CCOC(=O)c1ccc(S(=O)(=O)N2CCN(C(=O)c3nn(C)c(=O)c4ccccc34)CC2)cc1 | inconclusive: 39% | 
29 | CCc1ccccc1OCC(=O)Nc1cccc(S(=O)(=O)NC2=NCCCCC2)c1 |  | inconclusive: 29.1 µM [falling, single point]
30 | CCc1nnc(NC(=O)[C@@H](NC(=O)c2ccc(C(C)(C)C)cc2)C(C)C)s1 | inconclusive: -15.3% | 
31 | O=C(Nc1nnc(C(F)(F)F)s1)c1ccc(Br)s1 |  | inconclusive: 6.51 µM [falling, partial curve, poor fit]
32 | COc1ccc(OC)c(-c2cc(C(=O)Nc3c(C)nn(Cc4ccccc4Cl)c3C)no2)c1 | inconclusive: 20.9% | 
33 | COc1ccc(CCNC(=O)Cc2ccsc2)cc1 |  | inconclusive: 2.59 µM [activator, partial curve]
34 | CN(C)S(=O)(=O)c1ccc(Cl)c(C(=O)NC2CCN(Cc3ccccc3)C2)c1 (centres undefined) | inconclusive: 53.6% | 
35 | S=C(Nc1ccc2nsnc2c1)N1CCCCCC1 | inconclusive: -17.7% | 
36 | CC1(OC(=O)CCc2ccccc2)C(=O)C=C2C=C(c3ccc(C#N)cc3)N(CCN3CCOCC3)C=C2C1=O (centres undefined) | inconclusive: 5.3% | 
37 | Cc1ccc2cc3c(N)c(C(=O)N4CC(=O)Nc5ccccc54)sc3nc2c1 | inconclusive: -41.9% | 
38 | CC(C)(C)OC(=O)CC12CCCCC1NC(=O)O2 (centres undefined) |  | inconclusive: 0.116 µM [activator, full curve, poor fit]
39 | CCC(C)C(=O)N1CCc2cc(-c3csc(N)n3)ccc21 (centres undefined) |  | inconclusive: 11.6 µM [activator, partial curve]
40 | Cn1c(N2CCN(c3ccccn3)CC2)nc2c1c(=O)n(Cc1ccc(Cl)cc1)c(=O)n2C | inconclusive: 23% | 
41 | CCc1nnc(NC(=O)c2cc(S(=O)(=O)N3CCOCC3)ccc2N2CCCCC2)s1 | inconclusive: 31.4% | 
42 | COc1nc(OC)nc(N2CCC(C(=O)Nc3cccc4ccccc34)CC2)n1 | inactive | 
43 | CC(=O)c1ccccc1NC(=O)COC(=O)CSCC(=O)Nc1cc(C)on1 |  | inconclusive: 11.6 µM [falling, partial curve]
44 | Cc1ccc2nc(SCC(=O)Nc3cccc(S(=O)(=O)NC4=NCCCCC4)c3)[nH]c2c1 | inconclusive: -21.9% | 
45 | CC(C)c1nc2sc3c(=S)nc[nH]c3c2c2c1CCC2 |  | inconclusive: 0.0046 µM [rising, full curve, poor fit]
46 | Cc1ccc(-c2cc(Cc3cccs3)c(=O)[nH]n2)cc1 | inconclusive: 57.9% | 
47 | COc1ccc(NS(=O)(=O)c2cccc(C(=O)N3CCN(c4ccccc4O)CC3)c2)cc1 |  | inconclusive: 4.61 µM [activator, partial curve]
48 | O=C(c1ccccc1)N1CCN2C(=O)c3ccccc3C12c1ccc(Cl)cc1 (centres undefined) |  | inconclusive: 2.91 µM [activator, partial curve]
49 | CS(=O)(=O)N(CCC(=O)O)Cc1ccccc1 |  | inconclusive: 23.1 µM [falling, partial curve, poor fit]
50 | CCOC(=O)N1CCN(Cc2cccs2)CC1 | inconclusive: 0.291% | 

Entries of single compounds, looked up by structure.
`CCc1nnc(NC(=O)[C@@H](NC(=O)c2ccc(C(C)(C)C)cc2)C(C)C)s1` is listed with lipid storage change, negative = inhibition: inconclusive: -15.3%
`CCc1nnc(NC(=O)c2cc(S(=O)(=O)N3CCOCC3)ccc2N2CCCCC2)s1` is listed with lipid storage change, negative = inhibition: inconclusive: 31.4%
`Cn1c(N2CCN(c3ccccn3)CC2)nc2c1c(=O)n(Cc1ccc(Cl)cc1)c(=O)n2C` is listed with lipid storage change, negative = inhibition: inconclusive: 23%

Remaining list, next part

Row | Compound | lipid storage change, negative = inhibition | Potency
51 | CN(Cc1cn(C)nc1-c1ccc(Oc2ccccc2)cc1)Cc1cnc2ccccn12 | inconclusive: -33.7% | 
52 | COC(=O)[C@@H]1C[C@@]2(O)[C@@H](O)[C@@H](O)[C@@H](O)C[C@H]2N1Cc1ccc(-c2ccccc2)cc1 | inconclusive: -20% | 
53 | O=C(CN1CCN(Cc2ccccc2)CC1)N1CCCc2ccccc21 | inconclusive: 11.5% | 
54 | OC(COc1ccc(OCC(O)CN2CCCCCC2)cc1)CN1CCCCCC1 (centres undefined) | inactive | 
55 | Cc1ccc(N2CC(C(=O)Nc3cccc(F)c3)CC2=O)cc1 (centres undefined) |  | inconclusive: 5.17 µM [falling, single point]
56 | CC12C(=O)N(c3ccccn3)C(=O)C1C1C=CC2C1 (centres undefined) | inconclusive: 7.31% | 
57 | O=C(NCCCN1CCCC1=O)c1cccc(NS(=O)(=O)c2ccccc2)c1 | inconclusive: 12% | 
58 | COc1ccccc1NC(=O)CCSc1nc(C)cs1 |  | inconclusive: 0.0052 µM [activator, full curve, poor fit]
59 | CCOC(=O)/C(C#N)=C/c1cc2ccccc2nc1N1CCOCC1 | inconclusive: 30.5% | 
60 | COc1ccc(C)cc1NC(=O)C1CCN(S(=O)(=O)c2ccccc2)CC1 |  | inconclusive: 13 µM [falling, partial curve, poor fit]
61 | CCNC(=S)Nc1ccc(OCc2nc3ccccc3s2)cc1 | inconclusive: -43.4% | 
62 | Cn1c(N)c(C(=O)CSc2nc(C3CC3)n(-c3ccccc3)n2)c(=O)n(C)c1=O |  | inconclusive: 1.84 µM [falling, partial curve]
63 | CN(C)C(=O)Oc1ccc[n+](C)c1 | inconclusive: -3.75% | 
64 | O=C(O)c1ccc(NC(=S)NC(=O)c2ccc3ccccc3c2)cc1 | inconclusive: 25.2% | 
65 | O=C(CN1C(=O)CCS(=O)(=O)c2ccccc21)NCCc1ccccc1 | inconclusive: -10.6% | 
66 | O=C(CCc1ccccc1)Nc1cc2c(cc1Cl)OCCO2 | inconclusive: 6.61% | 
67 | CCOc1ccc(C(C(=O)Nc2ccc(F)cc2)N(C(=O)Cn2nnc3ccccc32)C2CC2)cc1 (centres undefined) | inconclusive: -21.4% | 
68 | CC(C)N(Cc1nccn1C)C(=O)c1cc(COc2ccc3ncccc3c2)on1 |  | inconclusive: 20.6 µM [falling, single point]
69 | CCN(CC)c1ccc2ccc(=O)oc2c1 | inconclusive: 17.3% | 
70 | CC1(C)Cc2c(sc3c2C2=NCCN2C=N3)CO1 | inconclusive: -8.82% | 
71 | c1ccc(Oc2cccc(CN3CCCCC3)c2)cc1 |  | inconclusive: 0.58 µM [falling, partial curve, poor fit]
72 | O=C(Nc1ccc(Cl)cn1)c1ccccc1SCc1ccccc1 |  | inconclusive: 29.1 µM [falling, single point]
73 | O=C(CCc1nnc(CCCc2ccccc2)o1)N1CCCCCC1 | inconclusive: -22.1% | 
74 | CN1CCN(CCCNC(=O)c2cc3c(=O)n(C)c4ccccc4c3s2)CC1 |  | inconclusive: 0.0052 µM [activator, full curve, poor fit]
